Amino acid sequences for entries named in this document (tags omitted). A change or cut given only in a name is not applied to a line headed by its entry.
UniProt Q15020: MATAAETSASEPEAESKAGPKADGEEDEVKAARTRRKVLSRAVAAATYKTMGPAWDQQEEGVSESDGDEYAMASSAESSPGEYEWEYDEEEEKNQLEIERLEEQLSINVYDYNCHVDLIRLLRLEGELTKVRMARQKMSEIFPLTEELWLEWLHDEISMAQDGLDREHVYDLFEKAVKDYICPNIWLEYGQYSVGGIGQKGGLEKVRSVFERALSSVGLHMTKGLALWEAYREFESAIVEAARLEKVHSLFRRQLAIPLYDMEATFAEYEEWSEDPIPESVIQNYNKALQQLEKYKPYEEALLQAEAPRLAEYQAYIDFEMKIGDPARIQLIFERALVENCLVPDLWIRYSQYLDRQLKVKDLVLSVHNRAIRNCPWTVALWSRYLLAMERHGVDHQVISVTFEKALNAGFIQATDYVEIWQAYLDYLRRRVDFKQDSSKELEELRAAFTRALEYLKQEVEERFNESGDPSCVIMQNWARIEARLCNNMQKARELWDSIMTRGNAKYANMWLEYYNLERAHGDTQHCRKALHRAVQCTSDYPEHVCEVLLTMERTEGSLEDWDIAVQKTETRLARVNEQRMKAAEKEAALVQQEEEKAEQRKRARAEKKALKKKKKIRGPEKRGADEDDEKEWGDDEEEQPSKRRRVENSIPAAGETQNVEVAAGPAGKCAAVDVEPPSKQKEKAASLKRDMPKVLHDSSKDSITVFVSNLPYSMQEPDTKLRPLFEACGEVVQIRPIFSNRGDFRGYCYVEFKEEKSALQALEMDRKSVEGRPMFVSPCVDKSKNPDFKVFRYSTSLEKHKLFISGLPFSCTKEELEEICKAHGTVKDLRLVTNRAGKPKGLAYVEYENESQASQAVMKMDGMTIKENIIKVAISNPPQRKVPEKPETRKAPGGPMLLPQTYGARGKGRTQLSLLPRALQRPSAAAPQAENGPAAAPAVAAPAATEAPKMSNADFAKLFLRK
UniProt Q16629: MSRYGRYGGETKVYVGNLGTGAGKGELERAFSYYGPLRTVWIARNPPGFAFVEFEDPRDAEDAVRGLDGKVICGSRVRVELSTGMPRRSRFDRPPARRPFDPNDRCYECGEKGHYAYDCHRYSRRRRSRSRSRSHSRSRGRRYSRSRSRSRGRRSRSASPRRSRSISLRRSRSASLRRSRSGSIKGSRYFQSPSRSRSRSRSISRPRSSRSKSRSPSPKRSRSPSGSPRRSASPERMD
UniProt Q2TAZ0: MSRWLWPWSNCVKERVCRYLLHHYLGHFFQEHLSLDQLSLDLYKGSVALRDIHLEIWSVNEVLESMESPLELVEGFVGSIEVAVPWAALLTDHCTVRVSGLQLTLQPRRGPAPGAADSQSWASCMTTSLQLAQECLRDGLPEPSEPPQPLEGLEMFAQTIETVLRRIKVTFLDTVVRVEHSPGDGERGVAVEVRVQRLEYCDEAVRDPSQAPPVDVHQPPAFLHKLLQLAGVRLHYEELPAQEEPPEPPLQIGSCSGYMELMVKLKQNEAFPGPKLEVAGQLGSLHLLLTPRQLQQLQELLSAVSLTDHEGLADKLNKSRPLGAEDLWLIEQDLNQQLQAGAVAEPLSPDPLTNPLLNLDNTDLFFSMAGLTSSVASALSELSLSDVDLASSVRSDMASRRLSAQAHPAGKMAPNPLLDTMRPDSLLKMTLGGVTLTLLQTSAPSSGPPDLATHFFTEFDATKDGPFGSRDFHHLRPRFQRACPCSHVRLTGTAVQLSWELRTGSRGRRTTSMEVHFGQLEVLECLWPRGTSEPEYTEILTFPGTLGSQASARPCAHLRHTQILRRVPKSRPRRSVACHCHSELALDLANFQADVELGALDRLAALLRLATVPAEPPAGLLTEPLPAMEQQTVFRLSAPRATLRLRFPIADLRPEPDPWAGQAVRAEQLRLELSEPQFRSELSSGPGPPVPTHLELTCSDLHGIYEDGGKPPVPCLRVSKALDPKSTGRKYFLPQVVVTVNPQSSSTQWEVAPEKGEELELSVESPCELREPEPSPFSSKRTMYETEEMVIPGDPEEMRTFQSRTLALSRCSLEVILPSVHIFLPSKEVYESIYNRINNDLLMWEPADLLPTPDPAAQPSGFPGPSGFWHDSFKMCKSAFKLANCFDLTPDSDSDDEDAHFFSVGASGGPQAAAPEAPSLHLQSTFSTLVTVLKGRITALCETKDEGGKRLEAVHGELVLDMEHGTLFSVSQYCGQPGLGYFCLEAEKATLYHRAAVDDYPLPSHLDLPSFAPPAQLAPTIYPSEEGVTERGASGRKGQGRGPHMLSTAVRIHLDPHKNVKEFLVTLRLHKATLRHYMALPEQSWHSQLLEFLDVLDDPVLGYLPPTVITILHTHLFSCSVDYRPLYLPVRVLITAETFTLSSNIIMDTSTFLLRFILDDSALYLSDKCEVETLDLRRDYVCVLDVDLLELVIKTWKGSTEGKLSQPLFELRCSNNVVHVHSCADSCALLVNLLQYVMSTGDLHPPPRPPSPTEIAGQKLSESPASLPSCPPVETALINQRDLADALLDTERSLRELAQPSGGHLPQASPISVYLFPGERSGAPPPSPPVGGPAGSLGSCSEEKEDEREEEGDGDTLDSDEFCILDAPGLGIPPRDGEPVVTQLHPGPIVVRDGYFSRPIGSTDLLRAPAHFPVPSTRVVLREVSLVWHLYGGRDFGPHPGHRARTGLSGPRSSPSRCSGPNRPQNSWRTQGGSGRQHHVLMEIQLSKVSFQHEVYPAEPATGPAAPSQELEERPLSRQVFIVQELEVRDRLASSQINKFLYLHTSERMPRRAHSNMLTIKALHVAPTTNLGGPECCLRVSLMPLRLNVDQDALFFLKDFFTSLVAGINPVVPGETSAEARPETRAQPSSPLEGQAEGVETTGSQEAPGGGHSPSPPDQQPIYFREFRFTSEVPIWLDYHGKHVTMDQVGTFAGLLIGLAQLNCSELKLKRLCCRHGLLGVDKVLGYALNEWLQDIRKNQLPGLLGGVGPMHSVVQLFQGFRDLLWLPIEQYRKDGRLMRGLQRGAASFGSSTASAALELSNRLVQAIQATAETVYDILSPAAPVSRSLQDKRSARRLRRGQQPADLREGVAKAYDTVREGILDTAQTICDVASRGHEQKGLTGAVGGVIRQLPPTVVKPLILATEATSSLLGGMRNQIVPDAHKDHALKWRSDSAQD
UniProt Q15942: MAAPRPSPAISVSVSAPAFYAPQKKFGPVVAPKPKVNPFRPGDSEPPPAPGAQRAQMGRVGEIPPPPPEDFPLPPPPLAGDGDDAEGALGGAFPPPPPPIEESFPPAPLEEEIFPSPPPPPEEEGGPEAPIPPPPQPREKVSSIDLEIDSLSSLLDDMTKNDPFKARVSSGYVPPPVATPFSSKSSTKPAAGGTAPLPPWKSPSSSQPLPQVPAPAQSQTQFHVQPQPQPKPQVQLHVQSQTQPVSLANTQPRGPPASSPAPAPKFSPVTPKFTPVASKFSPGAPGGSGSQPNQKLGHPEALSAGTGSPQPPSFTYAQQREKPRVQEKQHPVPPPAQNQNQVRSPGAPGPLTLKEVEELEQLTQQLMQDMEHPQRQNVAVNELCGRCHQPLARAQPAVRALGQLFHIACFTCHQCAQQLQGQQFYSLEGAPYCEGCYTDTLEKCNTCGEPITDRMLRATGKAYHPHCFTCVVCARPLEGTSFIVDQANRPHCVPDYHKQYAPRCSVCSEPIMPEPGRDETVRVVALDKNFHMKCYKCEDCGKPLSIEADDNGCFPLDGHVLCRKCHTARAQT
UniProt Q15032: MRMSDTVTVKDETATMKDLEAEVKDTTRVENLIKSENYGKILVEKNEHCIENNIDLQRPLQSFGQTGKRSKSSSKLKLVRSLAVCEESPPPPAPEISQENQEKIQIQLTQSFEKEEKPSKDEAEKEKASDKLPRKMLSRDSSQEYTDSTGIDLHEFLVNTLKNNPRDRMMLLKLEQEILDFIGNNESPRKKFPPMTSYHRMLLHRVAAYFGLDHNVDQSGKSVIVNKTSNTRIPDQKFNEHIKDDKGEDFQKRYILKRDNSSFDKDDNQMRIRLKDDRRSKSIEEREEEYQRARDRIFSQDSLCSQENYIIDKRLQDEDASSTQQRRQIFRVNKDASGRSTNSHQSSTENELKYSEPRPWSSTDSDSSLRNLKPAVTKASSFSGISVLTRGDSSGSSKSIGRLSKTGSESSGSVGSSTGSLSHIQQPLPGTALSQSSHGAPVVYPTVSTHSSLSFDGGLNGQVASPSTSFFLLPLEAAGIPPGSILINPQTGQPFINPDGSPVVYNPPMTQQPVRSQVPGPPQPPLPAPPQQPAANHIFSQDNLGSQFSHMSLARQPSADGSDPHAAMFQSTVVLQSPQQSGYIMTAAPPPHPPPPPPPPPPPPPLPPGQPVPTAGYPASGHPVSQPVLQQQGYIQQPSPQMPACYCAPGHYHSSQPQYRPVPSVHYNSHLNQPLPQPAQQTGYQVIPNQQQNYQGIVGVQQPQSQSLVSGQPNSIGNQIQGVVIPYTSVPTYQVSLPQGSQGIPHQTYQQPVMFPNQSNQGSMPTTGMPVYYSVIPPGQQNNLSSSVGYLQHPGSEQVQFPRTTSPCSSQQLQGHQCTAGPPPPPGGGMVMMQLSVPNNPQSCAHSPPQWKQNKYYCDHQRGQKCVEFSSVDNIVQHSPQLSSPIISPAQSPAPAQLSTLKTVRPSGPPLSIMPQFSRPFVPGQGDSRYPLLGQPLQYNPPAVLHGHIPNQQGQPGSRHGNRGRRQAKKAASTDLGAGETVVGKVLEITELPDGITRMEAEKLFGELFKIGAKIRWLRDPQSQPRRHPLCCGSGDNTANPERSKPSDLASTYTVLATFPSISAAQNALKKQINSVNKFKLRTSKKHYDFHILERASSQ
UniProt Q15287: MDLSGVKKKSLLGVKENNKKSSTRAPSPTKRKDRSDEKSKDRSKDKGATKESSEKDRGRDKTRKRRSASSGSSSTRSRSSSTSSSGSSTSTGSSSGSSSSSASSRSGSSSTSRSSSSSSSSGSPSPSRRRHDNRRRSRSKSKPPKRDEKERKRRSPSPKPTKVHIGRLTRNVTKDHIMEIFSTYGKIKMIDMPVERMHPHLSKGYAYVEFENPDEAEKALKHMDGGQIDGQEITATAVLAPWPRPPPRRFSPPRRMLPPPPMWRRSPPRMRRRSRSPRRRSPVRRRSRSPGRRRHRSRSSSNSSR
UniProt Q15813: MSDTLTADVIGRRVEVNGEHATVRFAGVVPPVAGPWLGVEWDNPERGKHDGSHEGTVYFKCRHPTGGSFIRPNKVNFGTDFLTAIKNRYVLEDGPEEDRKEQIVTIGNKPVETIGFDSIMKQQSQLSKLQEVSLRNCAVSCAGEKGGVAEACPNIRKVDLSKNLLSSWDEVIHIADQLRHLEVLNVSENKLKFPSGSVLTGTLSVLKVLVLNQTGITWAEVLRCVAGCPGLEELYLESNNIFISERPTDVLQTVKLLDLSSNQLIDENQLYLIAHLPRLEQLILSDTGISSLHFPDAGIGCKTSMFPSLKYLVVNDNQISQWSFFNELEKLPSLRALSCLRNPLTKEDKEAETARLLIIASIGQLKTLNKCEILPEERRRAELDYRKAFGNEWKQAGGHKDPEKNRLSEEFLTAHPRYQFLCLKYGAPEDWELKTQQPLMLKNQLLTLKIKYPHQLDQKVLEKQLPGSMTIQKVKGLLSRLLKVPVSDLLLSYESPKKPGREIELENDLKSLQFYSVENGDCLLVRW
UniProt Q15723: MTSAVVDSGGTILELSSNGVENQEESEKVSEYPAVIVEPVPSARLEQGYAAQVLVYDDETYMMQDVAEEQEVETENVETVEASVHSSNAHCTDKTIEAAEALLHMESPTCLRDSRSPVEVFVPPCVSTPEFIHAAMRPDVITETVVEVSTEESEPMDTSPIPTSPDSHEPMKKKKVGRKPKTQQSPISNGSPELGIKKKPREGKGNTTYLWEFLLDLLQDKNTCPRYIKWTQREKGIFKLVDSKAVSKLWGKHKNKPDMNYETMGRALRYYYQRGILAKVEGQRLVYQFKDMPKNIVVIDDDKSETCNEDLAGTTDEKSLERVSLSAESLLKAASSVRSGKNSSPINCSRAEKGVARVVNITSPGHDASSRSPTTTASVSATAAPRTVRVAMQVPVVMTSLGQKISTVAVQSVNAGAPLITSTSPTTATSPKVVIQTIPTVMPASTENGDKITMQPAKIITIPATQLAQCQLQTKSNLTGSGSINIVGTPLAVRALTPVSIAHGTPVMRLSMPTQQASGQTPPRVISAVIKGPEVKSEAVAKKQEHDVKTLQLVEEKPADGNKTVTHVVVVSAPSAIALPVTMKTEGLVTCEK
UniProt Q15131: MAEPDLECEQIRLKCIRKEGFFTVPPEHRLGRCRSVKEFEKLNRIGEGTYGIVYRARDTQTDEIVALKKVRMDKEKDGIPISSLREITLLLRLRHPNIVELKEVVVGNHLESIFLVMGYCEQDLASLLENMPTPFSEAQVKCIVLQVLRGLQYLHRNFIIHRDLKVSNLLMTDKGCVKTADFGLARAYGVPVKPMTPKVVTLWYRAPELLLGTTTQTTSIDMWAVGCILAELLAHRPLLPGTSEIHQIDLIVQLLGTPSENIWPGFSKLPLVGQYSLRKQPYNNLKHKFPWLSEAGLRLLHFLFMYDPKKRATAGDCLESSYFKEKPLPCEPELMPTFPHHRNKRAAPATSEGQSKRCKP

This is one part of the list. Most entries show no effect beyond the scatter of the controls.
The targets below were run with Cc1nc(Nc2ncc(C(=O)Nc3c(C)cccc3Cl)s2)cc(N2CCN(CCO)CC2)n1 [dasatinib] (assay: log2 fold change of tryptic peptide abundance, ligand vs vehicle (limited proteolysis) (log2 ratio); higher = more trypsin-susceptible (destabilized)). Settings: ligand concentration: 5 uM; sample: K562 cleared lysate.
In the case of “PCM1 (peptide sequence: NQLDTNGR, peptide start residue: 1242) (UniProt Q15154)”, the log2 fold change is reported as 0.195. In the case of “SART3 (peptide sequence: YKPYEEALLQAEAPR, peptide start residue: 295) (UniProt Q15020)”, the log2 fold change is reported as -0.471. “UniProt Q16629 (peptide sequence: CYECGEK, peptide start residue: 106)” was tested, and the log2 fold change was 0.19. “ZNF74 (peptide sequence: NFSLGSKPR, peptide start residue: 635) (UniProt Q16587)” showed a log2 fold change of -0.558. Target “PPP2R5A (peptide sequence: FLESPDFQPSIAKR, peptide start residue: 169) (UniProt Q15172)” has a log2 fold change of -0.329. With “CRY1 (peptide sequence: SSMGTGLSGGK, peptide start residue: 555) (UniProt Q16526)” the log2 fold change was -0.2. “UniProt Q2PPJ7 (peptide sequence: SHPDVTEPMR, peptide start residue: 701)” showed a log2 fold change of 0.23. “SAFB (peptide sequence: ELPEQLQEHAIEDK, peptide start residue: 173) (UniProt Q15424)” showed a log2 fold change of 0.263. Target “TRIP11 (peptide sequence: QSDTMTEK, peptide start residue: 367) (UniProt Q15643)” has a log2 fold change of -0.443. Work on “ATG2A (peptide sequence: NQIVPDAHK, peptide start residue: 1917) (UniProt Q2TAZ0)” yielded a log2 fold change of 0.191. Work on “ZYX (peptide sequence: SSTKPAAGGTAPLPPWK, peptide start residue: 185) (UniProt Q15942)” yielded a log2 fold change of 0.2. “R3HDM1 (peptide sequence: QNKYYCDHQR, peptide start residue: 853) (UniProt Q15032)” was tested, and the log2 fold change was -1.13. Target “UniProt Q15287 (peptide sequence: MLPPPPMWR, peptide start residue: 256)” has a log2 fold change of -0.0556. “TBCE (peptide sequence: HLEVLNVSENK, peptide start residue: 180) (UniProt Q15813)” gave a log2 fold change of -0.279. With “ELF2 (peptide sequence: ALTPVSIAHGTPVMR, peptide start residue: 495) (UniProt Q15723)” the log2 fold change was 0.322. “CDK10 (peptide sequence: AAPATSEGQSK, peptide start residue: 346) (UniProt Q15131)” gave a log2 fold change of 0.255.

From the supplement of paper PMC12819154, “High-throughput peptide-centric local stability assay extends protein–ligand identification to membrane proteins, tissues and bacteria” (Nature Structural & Molecular Biology, 2025)
